In the supplement of paper PMC10849652 one finds log2 fold change data, which are given here for six targets.

Chains of the proteins cited; added tags and fusions are not shown. Lines headed by an entry give the natural chain unless they say otherwise; changes in a name come on top.
UniProt Q9NR50: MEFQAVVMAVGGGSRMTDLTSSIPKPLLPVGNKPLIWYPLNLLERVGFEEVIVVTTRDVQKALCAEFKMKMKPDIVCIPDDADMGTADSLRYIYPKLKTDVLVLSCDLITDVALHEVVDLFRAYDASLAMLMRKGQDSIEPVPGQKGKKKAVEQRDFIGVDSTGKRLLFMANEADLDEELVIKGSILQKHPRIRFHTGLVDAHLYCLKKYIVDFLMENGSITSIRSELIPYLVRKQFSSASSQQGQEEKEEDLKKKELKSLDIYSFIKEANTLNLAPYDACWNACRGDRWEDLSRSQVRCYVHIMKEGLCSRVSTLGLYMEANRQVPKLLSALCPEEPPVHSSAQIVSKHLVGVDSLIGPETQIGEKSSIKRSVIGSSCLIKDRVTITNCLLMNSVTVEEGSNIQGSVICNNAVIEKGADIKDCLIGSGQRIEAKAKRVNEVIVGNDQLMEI
UniProt O43402: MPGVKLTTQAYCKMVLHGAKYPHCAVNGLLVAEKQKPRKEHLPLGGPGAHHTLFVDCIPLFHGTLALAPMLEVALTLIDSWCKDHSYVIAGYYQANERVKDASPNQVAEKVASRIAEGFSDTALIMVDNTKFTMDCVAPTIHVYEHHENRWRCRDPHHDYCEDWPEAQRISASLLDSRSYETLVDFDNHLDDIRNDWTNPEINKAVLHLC
UniProt Q96EB1: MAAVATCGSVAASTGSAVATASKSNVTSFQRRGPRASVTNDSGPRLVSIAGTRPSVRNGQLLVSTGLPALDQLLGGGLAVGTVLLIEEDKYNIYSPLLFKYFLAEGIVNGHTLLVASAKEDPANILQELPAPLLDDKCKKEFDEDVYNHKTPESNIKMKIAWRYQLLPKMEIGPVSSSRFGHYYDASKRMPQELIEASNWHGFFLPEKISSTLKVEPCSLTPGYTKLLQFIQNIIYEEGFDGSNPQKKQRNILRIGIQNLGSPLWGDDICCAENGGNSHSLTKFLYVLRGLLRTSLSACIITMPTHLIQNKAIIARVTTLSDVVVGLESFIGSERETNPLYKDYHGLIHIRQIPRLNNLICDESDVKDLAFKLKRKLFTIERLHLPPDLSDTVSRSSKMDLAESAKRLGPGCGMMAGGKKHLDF
UniProt Q96RT1: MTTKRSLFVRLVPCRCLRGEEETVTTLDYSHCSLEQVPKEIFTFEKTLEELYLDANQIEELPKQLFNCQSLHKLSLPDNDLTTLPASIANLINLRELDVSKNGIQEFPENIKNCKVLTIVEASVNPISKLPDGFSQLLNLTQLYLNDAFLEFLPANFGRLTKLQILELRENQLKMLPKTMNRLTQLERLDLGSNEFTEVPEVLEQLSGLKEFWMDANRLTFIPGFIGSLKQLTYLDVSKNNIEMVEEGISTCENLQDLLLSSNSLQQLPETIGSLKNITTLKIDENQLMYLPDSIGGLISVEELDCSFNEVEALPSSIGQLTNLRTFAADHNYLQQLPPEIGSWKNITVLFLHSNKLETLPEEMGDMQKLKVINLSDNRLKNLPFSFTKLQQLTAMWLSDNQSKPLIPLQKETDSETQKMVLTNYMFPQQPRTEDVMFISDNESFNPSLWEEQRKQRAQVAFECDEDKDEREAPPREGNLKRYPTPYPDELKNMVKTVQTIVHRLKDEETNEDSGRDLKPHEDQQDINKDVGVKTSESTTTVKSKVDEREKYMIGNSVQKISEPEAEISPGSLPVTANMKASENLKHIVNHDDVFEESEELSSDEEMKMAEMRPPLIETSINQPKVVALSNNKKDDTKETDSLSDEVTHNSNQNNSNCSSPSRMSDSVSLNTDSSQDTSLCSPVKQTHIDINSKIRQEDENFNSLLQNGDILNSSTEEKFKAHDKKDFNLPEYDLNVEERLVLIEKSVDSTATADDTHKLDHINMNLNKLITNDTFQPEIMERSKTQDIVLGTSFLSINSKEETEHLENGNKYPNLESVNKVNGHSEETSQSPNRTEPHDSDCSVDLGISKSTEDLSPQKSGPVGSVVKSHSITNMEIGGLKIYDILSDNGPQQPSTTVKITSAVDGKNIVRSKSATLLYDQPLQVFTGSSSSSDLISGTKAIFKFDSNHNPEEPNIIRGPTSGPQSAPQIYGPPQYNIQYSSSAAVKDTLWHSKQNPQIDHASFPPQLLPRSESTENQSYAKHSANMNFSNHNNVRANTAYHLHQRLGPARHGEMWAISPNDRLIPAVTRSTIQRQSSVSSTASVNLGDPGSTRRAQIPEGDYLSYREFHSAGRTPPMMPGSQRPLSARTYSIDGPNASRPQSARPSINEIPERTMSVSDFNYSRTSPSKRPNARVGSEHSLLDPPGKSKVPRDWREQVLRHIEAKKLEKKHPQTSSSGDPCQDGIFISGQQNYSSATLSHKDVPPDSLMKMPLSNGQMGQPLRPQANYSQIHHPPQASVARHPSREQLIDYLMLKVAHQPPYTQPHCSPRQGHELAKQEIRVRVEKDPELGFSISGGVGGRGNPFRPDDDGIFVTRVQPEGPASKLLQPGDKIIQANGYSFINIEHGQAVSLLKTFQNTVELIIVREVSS
UniProt Q04637, whole entry, looked up: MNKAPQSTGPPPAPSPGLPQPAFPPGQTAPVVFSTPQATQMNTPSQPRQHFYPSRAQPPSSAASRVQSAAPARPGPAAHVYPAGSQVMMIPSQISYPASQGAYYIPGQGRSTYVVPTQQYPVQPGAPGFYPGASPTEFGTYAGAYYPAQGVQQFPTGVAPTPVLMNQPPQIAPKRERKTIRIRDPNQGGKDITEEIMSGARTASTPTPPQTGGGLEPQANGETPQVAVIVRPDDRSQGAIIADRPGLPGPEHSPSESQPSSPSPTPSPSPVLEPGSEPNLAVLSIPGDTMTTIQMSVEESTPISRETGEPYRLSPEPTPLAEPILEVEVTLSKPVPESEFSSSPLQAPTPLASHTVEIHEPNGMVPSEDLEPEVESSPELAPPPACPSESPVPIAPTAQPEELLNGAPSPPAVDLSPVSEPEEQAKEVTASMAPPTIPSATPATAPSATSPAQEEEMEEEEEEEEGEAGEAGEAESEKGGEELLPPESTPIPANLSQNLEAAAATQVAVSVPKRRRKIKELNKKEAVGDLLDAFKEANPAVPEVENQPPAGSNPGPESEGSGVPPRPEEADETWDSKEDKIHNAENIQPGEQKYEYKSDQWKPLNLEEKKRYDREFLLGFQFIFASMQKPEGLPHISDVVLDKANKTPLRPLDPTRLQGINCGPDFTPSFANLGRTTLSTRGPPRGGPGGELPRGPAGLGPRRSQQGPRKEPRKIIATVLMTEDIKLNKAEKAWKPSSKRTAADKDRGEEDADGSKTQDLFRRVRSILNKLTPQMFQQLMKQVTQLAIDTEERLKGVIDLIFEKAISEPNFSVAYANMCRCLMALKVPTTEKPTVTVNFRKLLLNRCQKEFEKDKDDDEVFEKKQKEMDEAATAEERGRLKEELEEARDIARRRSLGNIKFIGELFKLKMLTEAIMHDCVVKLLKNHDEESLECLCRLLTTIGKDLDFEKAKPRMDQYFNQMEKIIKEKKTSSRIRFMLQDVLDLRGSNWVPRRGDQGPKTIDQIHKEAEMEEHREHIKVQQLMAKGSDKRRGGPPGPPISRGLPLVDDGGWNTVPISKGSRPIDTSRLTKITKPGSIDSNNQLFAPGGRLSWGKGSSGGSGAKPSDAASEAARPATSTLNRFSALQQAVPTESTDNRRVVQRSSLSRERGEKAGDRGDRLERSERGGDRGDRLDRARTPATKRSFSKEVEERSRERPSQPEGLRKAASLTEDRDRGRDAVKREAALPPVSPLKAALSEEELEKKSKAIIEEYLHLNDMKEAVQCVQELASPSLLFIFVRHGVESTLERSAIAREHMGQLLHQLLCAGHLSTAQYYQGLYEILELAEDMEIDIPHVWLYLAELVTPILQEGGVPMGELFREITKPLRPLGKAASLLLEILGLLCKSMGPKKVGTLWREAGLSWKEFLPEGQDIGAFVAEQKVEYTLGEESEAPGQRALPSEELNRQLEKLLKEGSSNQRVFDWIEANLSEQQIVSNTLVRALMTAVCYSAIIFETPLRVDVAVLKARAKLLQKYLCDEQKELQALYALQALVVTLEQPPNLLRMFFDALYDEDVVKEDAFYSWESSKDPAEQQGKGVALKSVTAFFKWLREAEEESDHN

Some of the results follow.

What all share (experiment): log2 fold change, soluble protein after heating vs DMSO (PISA); higher = thermal stabilisation; K562 lysate, 10 uM; active = over 0.2 and 3.5 SD of the protein, either way, in both replicates (recomputed)
Compound in assay [1]: CS(=O)(=O)CCNCc1ccc(-c2ccc3ncnc(Nc4ccc(OCc5cccc(F)c5)c(Cl)c4)c3c2)o1 [lapatinib]
The procedure, abridged: (§1)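 Log-two fold change in thermal stability relative to solvent controls is reported from duplicates. For each sample, crude K562 extract from dounce-homogenised pellets in PBS pH 7.4 with 1 mM MgCl2, at 1 mg/mL protein, was treated with 10 μM compound for 30 min. Aliquots heated for 3 min across 48°C-58°C were pooled, brought to 0.5% NP-40 at 4°C and cleared at 21,000xg for 90 min. The supernatant was quantified by TMTpro 16plex LC-MS/MS with channel sums equalised.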

Compound in assay [2]: CS(=O)(=O)N1CCN(Cc2cc3nc(-c4cccc5[nH]ncc45)nc(N4CCOCC4)c3s2)CC1 [pictilisib]
The procedure, abridged:
as §1

Compound in assay [3]: C[C@@H](Oc1cc(-c2cnn(C3CCNCC3)c2)cnc1N)c1c(Cl)ccc(F)c1Cl [crizotinib]
In short, it runs like this:
as §1

Compound in assay [4]: C[C@H](C1=CC=C(C=C1)C(=O)NC2=C3C=CNC3=NC=C2)N
In short, it runs like this:
as §1

Compound in assay [5]: C[C@H](Nc1ncnc2nc[nH]c12)c1cc2cccc(Cl)c2c(=O)n1-c1ccccc1 [duvelisib]
The procedure, abridged: as §1

Compound in assay [6]: Cc1cc(Nc2cc(CN3CCOCC3)c3nc(C)c(Cc4ccc(Cl)cc4F)n3n2)n[nH]1 [gandotinib]
The procedure, abridged:
as §1

Compound in assay [7]: Cc1cc(Nc2cc(N3CCN(C)CC3)nc(Sc3ccc(NC(=O)C4CC4)cc3)n2)n[nH]1 [tozasertib]
In short, it runs like this: as §1

Compound in assay [8]: Cc1ccc(-n2nc(C(C)(C)C)cc2NC(=O)Nc2ccc(OCCN3CCOCC3)c3ccccc23)cc1 [doramapimod]
The procedure, abridged: as §1

Compound in assay [9]: Cc1ccc(NC(=O)c2ccc(CN3CC[C@H](N(C)C)C3)c(C(F)(F)F)c2)cc1Nc1nccc(-c2cncnc2)n1 [bafetinib]
In short, it runs like this: as §1

Compound in assay [10]: Cc1cccc(CC(=O)N2CCc3c2ccc(-c2cn(C)c4ncnc(N)c24)c3F)n1
In short, it runs like this: as §1

Compound in assay [11]: Cc1cn(-c2cc(NC(=O)c3ccc(C)c(Nc4nccc(-c5cccnc5)n4)c3)cc(C(F)(F)F)c2)cn1 [nilotinib]
In short, it runs like this:
as §1

Compound in assay [12]: Cc1nc(Nc2n[nH]c3c2CN(C(=O)N[C@H](CN(C)C)c2ccccc2)C3(C)C)c2sccc2n1
The procedure, abridged: as §1

Compound in assay [13]: Cc1nc(Nc2ncc(C(=O)Nc3c(C)cccc3Cl)s2)cc(N2CCN(CCO)CC2)n1 [dasatinib]
The procedure, abridged: as §1

Compound in assay [14]: Cc1ncc(-c2ccnc(Nc3ccc(S(C)(=O)=O)cc3)n2)n1C(C)C
In short, it runs like this: as §1

Compound in assay [15]: Cn1cc(-c2ccc3c(c2)CCN3C(=O)Cc2cccc(C(F)(F)F)c2)c2c(N)ncnc21
The procedure, abridged:
as §1

Compound in assay [16]: Cn1cc(CNCC2CCN(c3ncc(C(=O)NO)cn3)CC2)c2ccccc21 [quisinostat]
In short, it runs like this: as §1

Compound in assay [17]: Cn1cncc1[C@@](N)(c1ccc(Cl)cc1)c1ccc2c(c1)c(-c1cccc(Cl)c1)cc(=O)n2C [tipifarnib]
The procedure, abridged: as §1

Compound in assay [18]: NC(=O)Nc1cc(-c2cccc(F)c2)sc1C(=O)N[C@H]1CCCNC1
The procedure, abridged:
as §1

Compound in assay [19]: NC(=O)c1cnc(N[C@@H]2CCCC[C@@H]2N)nc1Nc1cccc(-n2nccn2)c1
In short, it runs like this:
as §1

Compound in assay [20]: NC1(c2ccc(-c3nc4ccn5c(=O)[nH]nc5c4cc3-c3ccccc3)cc2)CCC1
In short, it runs like this: as §1

On to EIF6 (UniProt P56537), for which the log2 fold change in [1] was inactive: 0.002; in assay [2], inactive: 0.018; in [3] it was inactive: -0.018; in assay [4] it was inactive: -0.085; in [5], inactive: 0.015; in assay [6], inactive: 0.06. Moreover, the log2 fold change was inactive: -0.049 in assay [7]; inactive: 0.02 in assay [8]; inactive: 0.038 in assay [9]; inactive: 0.076 in [10]; inactive: -0.03 in assay [11]; inactive: 0.017 in [12]. Further, the log2 fold change was inactive: -0.004 in assay [13]; inactive: 0.019 in assay [14]; inactive: -0.002 in assay [15]; inactive: 0.003 in assay [16]; inactive: 0.011 in [17]; inactive: 0.016 in assay [18]. The log2 fold change is inactive: 0.008 in [19] and inactive: -0.055 in [20].

With EIF2B3 (UniProt Q9NR50), the log2 fold change in assay [1] is inactive: -0.007; in assay [2] it was inactive: -0.021; in assay [3], inactive: -0.061; in assay [4], active: 0.234; in assay [5] it was inactive: 0.016; in assay [6], inactive: -0.115. The log2 fold change in [7] is inactive: -0.035; in assay [8] it was inactive: 0.012; in assay [9] it was inactive: -0.024; in [10], inactive: -0.047; in assay [11] it was inactive: 0.001; in [12], inactive: 0.001. The log2 fold change in assay [13] is inactive: -0.049; in assay [14], inactive: 0.009; in [15], inactive: -0.024; in [16], inactive: -0.036; in [17], inactive: -0.013; in [18], inactive: 0.022. The log2 fold change was inactive: -0.008 in assay [19] and inactive: -0.009 in assay [20].

Take EMC8 (UniProt O43402): the log2 fold change in assay [1] is inactive: 0.009; in [2] it was inactive: -0.088; in [3] it was inactive: 0.012; in [4] it was inactive: -0.033; in assay [5], inactive: 0.011; in assay [6], inactive: -0.094. In addition, the log2 fold change in assay [7] is inactive: 0.021; in [8] it was inactive: -0.049; in assay [9], inactive: 0.006; in assay [10], inactive: 0.012; in assay [11], inactive: 0; in assay [12], inactive: 0.004. For the same target, the log2 fold change is inactive: 0.063 in [13]; inactive: -0.034 in [14]; inactive: -0.05 in assay [15]; inactive: 0.03 in assay [16]; inactive: -0.013 in assay [17]; inactive: -0.024 in assay [18]. In addition, the log2 fold change in assay [19] is inactive: -0.003; in assay [20], inactive: 0.053.

Regarding ELP4 (UniProt Q96EB1), the log2 fold change is inactive: 0.014 in assay [1]; inactive: -0.041 in [2]; inactive: -0.033 in assay [3]; inactive: -0.012 in assay [4]; inactive: 0.011 in assay [5]; inactive: 0.036 in assay [6]. The log2 fold change was inactive: -0.002 in assay [7]; inactive: 0.025 in assay [8]; inactive: 0.008 in [9]; inactive: -0.005 in assay [10]; inactive: 0.022 in assay [11]; inactive: 0.003 in assay [12]. For the same target, the log2 fold change in assay [13] is inactive: -0.012; in [14], inactive: 0; in [15] it was inactive: 0.006; in assay [16] it was inactive: -0.02; in assay [17], inactive: -0.019; in [18], inactive: -0.017. In addition, the log2 fold change was inactive: -0.01 in assay [19] and inactive: -0.032 in [20].

Regarding ERBIN isoform 8 (UniProt Q96RT1), the log2 fold change in [1] was inactive: -0.011; in [2], inactive: 0.012; in [3] it was inactive: -0.026; in assay [4], inactive: -0.056; in [5], inactive: 0.005; in assay [6], inactive: 0.012. The log2 fold change is inactive: -0.013 in assay [7]; inactive: 0.02 in [8]; inactive: -0.002 in assay [9]; inactive: 0.029 in [10]; inactive: 0.012 in assay [11]; inactive: -0.027 in assay [12]. Also, the log2 fold change in assay [13] is inactive: 0.051; in assay [14], inactive: -0.015; in [15] it was inactive: 0.018; in assay [16], inactive: -0.029; in [17], inactive: -0.005; in assay [18] it was inactive: 0.018. For the same target, the log2 fold change was inactive: 0 in [19] and inactive: 0.001 in [20].

EIF4G1 (UniProt Q04637): the log2 fold change in assay [1] is inactive: -0.003; in assay [2], inactive: 0.002; in [3] it was inactive: 0.013; in assay [4], inactive: 0.014; in assay [5] it was inactive: -0.002; in [6], inactive: -0.086. Also, the log2 fold change is inactive: -0.016 in [7]; inactive: -0.001 in assay [8]; inactive: 0.009 in assay [9]; inactive: -0.026 in [10]; inactive: -0.003 in assay [11]; inactive: 0.006 in assay [12]. The log2 fold change in assay [13] was inactive: -0.019; in [14], inactive: 0.023; in assay [15], inactive: 0.016; in assay [16], inactive: -0.005; in assay [17] it was inactive: -0.001; in assay [18], inactive: 0.014. Moreover, the log2 fold change in assay [19] was inactive: 0.003; in assay [20] it was inactive: 0.005.
